1 molecule from paper PMC8556256 can be followed below.

Results are given in words; binding and its absence hold for the method and conditions named. Binding seen in cells or lysates may run through a third protein. Binding calls can cover weak binding; strength is not graded here. Tags and fused reporters may be left off the sequences shown.

The target of this experiment is Flag-tagged WT PITX2 (mouse). As to the kind of experiment: co-IP; 293T cells co-transfected with PITX2-Flag (WT or R115L) and NRF2-HA or YAP1-HA; lysis in 50 mM Tris-HCl pH 7.5, 150 mM NaCl, 1% Nonidet P-40, 0.5% sodium deoxycholate; Flag immunoprecipitation at 4 °C overnight, six washes, blot with anti-HA; relative binding capacity = normalized IP-HA intensity / normalized IP-Flag intensity (ImageJ).

B1: HA-tagged NRF2 (protein, UniProt Q60795 1-597)
chain: MMDLELPPPGLQSQQDMDLIDILWRQDIDLGVSREVFDFSQRQKDYELEKQKKLEKERQEQLQKEQEKAFFAQFQLDEETGEFLPIQPAQHIQTDTSGSASYSQVAHIPKQDALYFEDCMQLLAETFPFVDDHESLALDIPSHAESSVFTAPHQAQSLNSSLEAAMTDLSSIEQDMEQVWQELFSIPELQCLNTENKQLADTTAVPSPEATLTEMDSNYHFYSSISSLEKEVGNCGPHFLHGFEDSFSSILSTDDASQLTSLDSNPTLNTDFGDEFYSAFIAEPSDGGSMPSSAAISQSLSELLDGTIEGCDLSLCKAFNPKHAEGTMEFNDSDSGISLNTSPSRASPEHSVESSIYGDPPPGFSDSEMEELDSAPGSVKQNGPKAQPAHSPGDTVQPLSPAQGHSAPMRESQCENTTKKEVPVSPGHQKAPFTKDKHSSRLEAHLTRDELRAKALHIPFPVEKIINLPVDDFNEMMSKEQFNEAQLALIRDIRRRGKNKVAAQNCRKRKLENIVELEQDLGHLKDEREKLLREKGENDRNLHLLKRRLSTLYLEVFSMLRDEDGKPYSPSEYSLQQTRDGNVFLVPKSKKPDTKKN
For the molecule B1, the binding result is listed as “binds”.
